The text below walks through data of PubChem BioAssay.

The assay is described as follows: Primary imaging screen for DUSP6 inhibitors that restore phospho-Erk in transfected HeLa cells, chemical complementation (AID 609). The note with it: HeLa MKP-3 transfected, phospho-Erk imaging KS statistic, at 10 µM, cells stimulated with TPA for 15 min.
Where [1] appears, read: measured here: cell density z-score.
Setting [2] is: measured here: nuclear c-Myc green intensity z-score.
Setting [3] is: measured here: nuclear pErk red intensity z-score, stronger effect = higher value.

Each structure is given as a SMILES string. The list shows a part of the results.

Regarding `CCN(CC)CC(O)COC(=O)C(O)(c1ccccc1)C1CCCCC1` (centres undefined), the z-score by setting is: under setting [1], -0.467; under setting [2], 0.555; under setting [3], -0.742.
As for `Cc1ccc(OCC(=O)OC2CN3CCC2CC3)cc1` (centres undefined), the z-score runs as follows: under setting [1], 0.823; under setting [2], -0.68; under setting [3], 1.41.
Take `Cc1cccc(OCC(=O)OC2CN3CCC2CC3)c1` (centres undefined): the z-score reads like this: under setting [1], -0.952; under setting [2], -1.07; under setting [3], 0.998.
